Results published in PMC9209781.

Biological target: Rice stripe virus (RSV) P2 (rice stripe virus)
Experiment: two-hybrid; RSV P2 in pGBKT7 (binding domain), rice proteins in pGADT7 (activation domain); co-transformed into AH109 yeast; grown on SD-LT, spotted on SD-A-H-L-T, 30°C

B1: Transcription factor MYBS1 (Q8LH59) (protein, UniProt Q8LH59 1-306)
chain: MTSQAATTTTTAAAAAAWTREDDKAFENALAACAAPPPADGGAPDDDWFAALAASVPGARSAEEVRRHYEALVEDVAAIDAGRVPLPRYAGEESAAPPDGAGAAAAASKDGGHRRDERKGGGGGYDGGKSCSKAEQERRKGIPWTEEEHRLFLLGLDKFGKGDWRSISRNFVISRTPTQVASHAQKYFIRLNSMNRDRRRSSIHDITSVTAGDQVAAQQGAPITGHQATGNPAAAALGPPGMKHHHHHHPGGAPPPMPMYSAAPMGHPVAGHMVPAAVGTPVVFPPGHAPYVVPVGYPAPPAKMHQ
- binding: no binding

No constants are given. Whether binding was seen depends on the method and setting.
